Results reported in the supplement of paper PMC12067093, “Discovery and optimisation of a covalent ligand for TRIM25 and its application to targeted protein ubiquitination” (Chemical Science, 2025).
The other results are listed elsewhere or left out.

Compound: Cc1cc(ccc1-c1ccccc1)C(=O)N1CCCN(CC1)C(=O)CCl [compound 10]
Assay: probe-labelled cysteine peptide fold change vs DMSO (competition) (log2 fold change); higher = less target engagement (more negative = stronger competition)
Conditions: THP-1, incubation time: 4 h
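Further: competitive profiling in live THP-1 cells: cysteine peptides tagged with an iodoacetamide desthiobiotin (IA-DTB) probe, intensity after compound treatment relative to DMSO-treated cells.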

## PREP_P48147_264_LWYCDLQQESSGIAGILK (UniProt P48147)
10 µM
  probe-labelled cysteine peptide fold change: 0.0388
50 µM
  probe-labelled cysteine peptide fold change: 0.112

## PPM1G_O15355_241_GTEAGQVGEPGIPTGEAGPSCSSASDK (UniProt O15355)
10 µM
  probe-labelled cysteine peptide fold change: 0.0822
50 µM
  probe-labelled cysteine peptide fold change: 0.026

## PRDX1_Q06830_83_LNCQVIGASVDSHFCHLAWVNTPK (UniProt Q06830)
10 µM
  probe-labelled cysteine peptide fold change: 0.119
50 µM
  probe-labelled cysteine peptide fold change: -0.219

## PPP6R1_Q9UPN7_172_LLTCVERPQLR (UniProt Q9UPN7)
10 µM
  probe-labelled cysteine peptide fold change: -0.171
50 µM
  probe-labelled cysteine peptide fold change: 0.543

## PRC1_O43663_531_LPPSGSKPVAASTCSGK (UniProt O43663)
10 µM
  probe-labelled cysteine peptide fold change: 0.383
50 µM
  probe-labelled cysteine peptide fold change: 0.215

## PPT1_P50897_45+46_ALQHLDPPAPLPLVIWHGMGDSCCNPLSMGAIK (UniProt P50897)
10 µM
  probe-labelled cysteine peptide fold change: -0.126
50 µM
  probe-labelled cysteine peptide fold change: -0.385

## PPP1CB_P62140_201_IMRPTDVPDTGLLCDLLWSDPDK (UniProt P62140)
10 µM
  probe-labelled cysteine peptide fold change: -0.0215
50 µM
  probe-labelled cysteine peptide fold change: 0.368

## PREX1_Q8TCU6_1021_KPSLIGLDPEQGHLNPMSYTQHCITTMAAPSWK (UniProt Q8TCU6)
10 µM
  probe-labelled cysteine peptide fold change: -0.0297
50 µM
  probe-labelled cysteine peptide fold change: -0.468

## PREX1_Q8TCU6_234_TVCSNINETK (UniProt Q8TCU6)
10 µM
  probe-labelled cysteine peptide fold change: -0.00661
50 µM
  probe-labelled cysteine peptide fold change: -0.0348

## PRC1_O43663_14_RSEVLAEESIVCLQK (UniProt O43663)
10 µM
  probe-labelled cysteine peptide fold change: 0.102
50 µM
  probe-labelled cysteine peptide fold change: -0.333

## PPP1R15B_Q5SWA1_686_IQETEDAIGYCLTFEHR (UniProt Q5SWA1)
10 µM
  probe-labelled cysteine peptide fold change: -0.455
50 µM
  probe-labelled cysteine peptide fold change: 0.187

## PPP2R5C_Q13362_513_ALEAHCR (UniProt Q13362)
10 µM
  probe-labelled cysteine peptide fold change: -0.164
50 µM
  probe-labelled cysteine peptide fold change: -0.436

## PPP2R5C_Q13362_49_QCCVLFDFVSDPLSDLK (UniProt Q13362)
10 µM
  probe-labelled cysteine peptide fold change: 0.0209
50 µM
  probe-labelled cysteine peptide fold change: -0.109
